Measurements reported in PubChem BioAssay AID686937 (Drosophila RNAi Screening Center, 2013).
The deposit covers about 23,000 reagents; this is a random part of those with a known target gene and a result. 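Reduced-secretion tags in replicate 1 do not always agree with the z-scores; no criterion for assigning the tags was given.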 A plus sign joins genes that one reagent is predicted to hit. No sequences are given here. Not stated in the record: the amount of reagent.

- Aim: 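Genes in the fly needed for secretion of protein constitutively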 (primary screen)
- System: Drosophila S2 cells expressing secreted horseradish peroxidase
- Knock-down reagent: long dsRNA against Drosophila genes
- Time to read-out: about 5.5 days (5 days dsRNA, then 12 h reporter induction)
- Conditions: reporter expression induced after 5 days of dsRNA, read 12 h later; inducer not stated
- Measurement: 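Chemiluminescent measurement of peroxidase in the medium 12 h after reporter induction, following 5 days of dsRNA, given as a z-score per plate; higher means more secretion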
- Scale: z-score: higher = more reporter secreted into medium

gene knocked down | DRSC id | z-score, replicate 1 | z-score, replicate 2 | z-score, replicate 3 | z-score, replicate 4 | phenotype, replicate 1
CG5793 + Obp93a | DRSC15220 | -0.25 | -0.42 | – | – | –
l(2)dtl | DRSC04697 | -0.77 | -1.3 | – | – | –
CG7137 | DRSC07017 | 0.5 | 0.38 | – | – | –
CG8219 | DRSC10971 | 0.41 | 0.31 | – | – | –
CG34174 | DRSC00101 | 0.25 | 0.39 | – | – | –
Alas | DRSC04044 | 0.27 | 0.23 | – | – | –
CG18063 | DRSC01968 | 0.05 | 0.04 | – | – | –
CG10669 | DRSC14261 | -0.23 | -0.02 | – | – | –
Ipk2 | DRSC00357 | 0.41 | 0.47 | – | – | –
Iswi | DRSC07446 | -1.05 | -0.86 | – | – | –
scb | DRSC05542 | 0.29 | 0.08 | – | – | –
scb | DRSC07678 | 0.35 | 0.34 | – | – | –
rau | DRSC03125 | 0.07 | 0.28 | – | – | –
Edg78E | DRSC11863 | 0.3 | 0.58 | – | – | –
Irk3 | DRSC02047 | 0.49 | 0.55 | – | – | –
CG34289 | DRSC13625 | 0.46 | 0.39 | – | – | –
Pus10 | DRSC00629 | 0.33 | 0.36 | – | – | –
Ufd1 | DRSC10607 | -1.16 | -0.72 | – | – | –
Map60 | DRSC07464 | 0.52 | 0.49 | – | – | –
Eglp2 | DRSC04294 | 0.21 | -0.01 | – | – | –
CG9459 | DRSC16496 | 0.2 | 0.6 | – | – | –
dpr1 | DRSC05906 | 0.58 | 0.34 | – | – | –
dpr1 | DRSC06399 | 0.4 | 0.3 | – | – | –
CG11663 | DRSC17793 | 0.11 | -0.21 | – | – | –
CG14546 | DRSC14890 | 0.12 | 0.1 | – | – | –
tud | DRSC04719 | -0.05 | 0.19 | – | – | –
Dlip2 | DRSC12346 | 0.36 | 0.47 | – | – | –
Datp | DRSC01102 | 0.61 | 0.24 | – | – | –
spz5 | DRSC08645 | 0.1 | 0.11 | – | – | –
pgc | DRSC04099 | 0.31 | 0.48 | – | – | –
hgo | DRSC03544 | 0.14 | 0.33 | – | – | –
CG31459 | DRSC13380 | 0.11 | 0.32 | – | – | –
Rbp6 | DRSC09456 | 0.04 | 0.17 | – | – | –
Rbp6 | DRSC09462 | 0.09 | -0.13 | – | – | –
Rbp6 | DRSC10072 | 0.32 | -0.31 | – | – | –
Rbp6 | DRSC10073 | 0.43 | 0 | – | – | –
Rbp6 | DRSC10662 | 0.22 | -0.4 | – | – | –
CG11147 | DRSC02129 | 0.35 | -0.37 | – | – | –
CG18788 | DRSC02697 | 0.43 | 0.26 | – | – | –
CG14605 | DRSC12549 | 0.08 | -6.45 | – | – | –
CG3356 | DRSC04358 | 0.53 | 0.13 | – | – | –
Apc | DRSC14114 | 0.29 | 0.45 | – | – | –
CG13404 | DRSC19536 | 0.31 | 0.53 | – | – | –
CG12213 | DRSC14478 | -2.78 | 0.14 | 0.23 | -1.83 | –
CG12213 | DRSC22109 | -0.46 | 0.07 | – | – | –
Pfk | DRSC07506 | 0.1 | 0.33 | – | – | –
Hipk | DRSC07885 | 0.48 | 0.46 | – | – | –
Hipk | DRSC08507 | -0.08 | 0.28 | – | – | –
Vps20 | DRSC04448 | 0.11 | 0.01 | – | – | –
AlaRS | DRSC01851 | 0.43 | 0.22 | – | – | –
CG16772 | DRSC02516 | 0.43 | 0.55 | – | – | –
Nrx-1 | DRSC16184 | 0.26 | 0.28 | – | – | –
CG14610 + asRNA:CR42738 | DRSC12554 | 0.18 | 0.3 | – | – | –
CG12496 | DRSC18602 | 0.69 | 0.57 | – | – | –
cbc | DRSC06957 | -0.17 | -0.15 | – | – | –
RhoGAP16F | DRSC20025 | 0.27 | 0.11 | – | – | –
Pino | DRSC00038 | -5.7 | -1.1 | – | – | reduced secretion
Pino | DRSC00662 | -0.34 | -0.3 | – | – | –
CG13285 | DRSC09960 | 0.24 | 0.13 | – | – | –
Arp1 | DRSC14118 | 0.05 | 0.23 | – | – | –
Der-2 | DRSC15021 | -0.11 | 0.04 | – | – | –
CG2017 | DRSC12293 | 0.46 | 0.2 | – | – | –
Whamy | DRSC14574 | 0.1 | 0.44 | – | – | –
Elys | DRSC19571 | 0.21 | 0.25 | – | – | –
Rm62 | DRSC12365 | -0.19 | -0.7 | – | – | –
whd | DRSC07351 | 0.2 | 0.37 | – | – | –
Tsp97E | DRSC16019 | 0.04 | 0.22 | – | – | –
Stim | DRSC20158 | 0.45 | 0.38 | – | – | –
CG42493 | DRSC05309 | -0.8 | -0.67 | – | – | –
CG33725 | DRSC09183 | 0.12 | -0.15 | – | – | –
Hrs | DRSC00549 | 0.38 | 0.49 | – | – | –
Sec61alpha | DRSC03256 | -4.99 | -5.32 | – | – | reduced secretion
Tmhs | DRSC08231 | -0.58 | -0.48 | – | – | –
CG5062 | DRSC18385 | 0.27 | 0.65 | – | – | –
CG43896 | DRSC10288 | 0.3 | 0.27 | – | – | –
CG43896 | DRSC10754 | 0.24 | 0.52 | – | – | –
CG11841 | DRSC14399 | 0.32 | 0.43 | – | – | –
CheA84a | DRSC12669 | 0.13 | 0.49 | – | – | –
kraken | DRSC00824 | 0.04 | 0.17 | – | – | –
tweek | DRSC02433 | -0.07 | 0.25 | – | – | –
tweek | DRSC02434 | -0.43 | -0.33 | – | – | –
tweek | DRSC02785 | 0.42 | 0.2 | – | – | –

Ordered by “z-score, replicate 2” (ascending): 14 of the entries above.
gene knocked down | DRSC id | z-score, replicate 1 | z-score, replicate 2 | z-score, replicate 3 | z-score, replicate 4 | phenotype, replicate 1
CG14605 | DRSC12549 | 0.08 | -6.45 | – | – | –
Rbp6 | DRSC10662 | 0.22 | -0.4 | – | – | –
CG11147 | DRSC02129 | 0.35 | -0.37 | – | – | –
Rbp6 | DRSC10072 | 0.32 | -0.31 | – | – | –
Rbp6 | DRSC09462 | 0.09 | -0.13 | – | – | –
Rbp6 | DRSC10073 | 0.43 | 0 | – | – | –
spz5 | DRSC08645 | 0.1 | 0.11 | – | – | –
CG3356 | DRSC04358 | 0.53 | 0.13 | – | – | –
Rbp6 | DRSC09456 | 0.04 | 0.17 | – | – | –
Datp | DRSC01102 | 0.61 | 0.24 | – | – | –
CG18788 | DRSC02697 | 0.43 | 0.26 | – | – | –
CG31459 | DRSC13380 | 0.11 | 0.32 | – | – | –
hgo | DRSC03544 | 0.14 | 0.33 | – | – | –
pgc | DRSC04099 | 0.31 | 0.48 | – | – | –
